{
  "source": "PubChem BioAssay AID344",
  "about": "(DTP/NCI, 2004)",
  "system": "mice, LPC-1 plasma cell tumor ip, median survival T/C",
  "assay": "NCI In Vivo Anticancer Drug Screen. Data for tumor model Lieberman Plasma Cell No. 1 (LPC-1) (intraperitoneal) in unknown mice",
  "details": "T/C endpoint: median survival time, higher T/C = longer survival",
  "method": "The antitumor activity of compounds was measured in mice bearing transplantable tumors. Survival or tumor size were measured and the results are expressed as the measurement made in the treated group (T) divided by the measurement made in the vehicle treated control group (C). The tumor model used in this assay is Lieberman Plasma Cell No. 1 (LPC-1) (intraperitoneal) in unknown mice",
  "note": "The list shows only some results of the screen, not a fair sample: it gathers some chemical classes. Other doses and runs of a compound may be missing. T/C gives the treated animals as a percentage of the vehicle group. For survival time, this PubChem deposit counts one and a half times the control or more as active, and values a quarter to a half above the control carry no call in these data; other NCI protocols may use other cut-offs. Some T/C values are marked as having no survivor count here; that says nothing about deaths at the dose. Schedule codes are those of the source, taken here to give the interval after Q, in days (D) or hours (H), and the number of doses after X. Some entries hold several experiments; their values stand side by side, smallest first. Some schedule codes hold Z or #, which are not explained here.",
  "data": [
    {"molecule": "ClCCN(CCCl)c1ccccc1", "values": [
      {"measurement": "T/C", "setting": "dose: 25.0 mg/kg/injection, schedule: Q## X015 (oral), vehicle: carboxymethylcellulose (CMC)", "result": "97 [survivor count not shown] and 428 % of control [survivor count not shown]"},
      {"measurement": "T/C", "setting": "dose: 25.1 mg/kg/injection, schedule: Q07DX004 (sc), vehicle: carboxymethylcellulose (CMC)", "result": "147 % of control [survivor count not shown]"},
      {"measurement": "T/C", "setting": "dose: 27.0 mg/kg/injection, schedule: Q01DX005 (oral), vehicle: steroid suspending solution", "result": "196 % of control [survivor count not shown]"},
      {"measurement": "T/C", "setting": "dose: 39.0 mg/kg/injection, schedule: Q01DX028 (sc), vehicle: carboxymethylcellulose (CMC)", "result": "113 [survivor count not shown] and 136 % of control [survivor count not shown]"},
      {"measurement": "T/C", "setting": "dose: 45.0 mg/kg/injection, schedule: Q01DX005 (oral), vehicle: steroid suspending solution", "result": "173 % of control [survivor count not shown]"},
      {"measurement": "T/C", "setting": "dose: 50.0 mg/kg/injection, schedule: Q01DX001 (ip), vehicle: carboxymethylcellulose (CMC)", "result": "529 % of control [survivor count not shown]"},
      {"measurement": "T/C", "setting": "dose: 50.0 mg/kg/injection, schedule: Q01DX001 (oral), vehicle: carboxymethylcellulose (CMC)", "result": "428 [survivor count not shown] and 500 % of control [survivor count not shown]"},
      {"measurement": "T/C", "setting": "dose: 50.0 mg/kg/injection, schedule: Q01DX001 (sc), vehicle: carboxymethylcellulose (CMC)", "result": "134 [survivor count not shown] and 145 % of control [survivor count not shown]"},
      {"measurement": "T/C", "setting": "dose: 50.0 mg/kg/injection, schedule: Q01DX005 (ip), vehicle: carboxymethylcellulose (CMC)", "result": "94 % of control [survivor count not shown]"},
      {"measurement": "T/C", "setting": "dose: 50.0 mg/kg/injection, schedule: Q01DX005 (oral), vehicle: carboxymethylcellulose (CMC)", "result": "94 [survivor count not shown], 95 [survivor count not shown], 100 [survivor count not shown], 450 % of control [survivor count not shown]"},
      {"measurement": "T/C", "setting": "dose: 50.0 mg/kg/injection, schedule: Q01DX024 (ip), vehicle: carboxymethylcellulose (CMC)", "result": "100 % of control [survivor count not shown]"},
      {"measurement": "T/C", "setting": "dose: 50.0 mg/kg/injection, schedule: Q01DX024 (oral), vehicle: carboxymethylcellulose (CMC)", "result": "95 % of control [survivor count not shown]"},
      {"measurement": "T/C", "setting": "dose: 50.0 mg/kg/injection, schedule: Q01DX028 (oral), vehicle: carboxymethylcellulose (CMC)", "result": "97 [survivor count not shown], 122 [survivor count not shown], 172 % of control [survivor count not shown]"},
      {"measurement": "T/C", "setting": "dose: 50.0 mg/kg/injection, schedule: Q01DX028 (sc), vehicle: carboxymethylcellulose (CMC)", "result": "121 % of control [survivor count not shown]"},
      {"measurement": "T/C", "setting": "dose: 50.0 mg/kg/injection, schedule: Q02DX014 (sc), vehicle: carboxymethylcellulose (CMC)", "result": "189 % of control [survivor count not shown]"},
      {"measurement": "T/C", "setting": "dose: 50.0 mg/kg/injection, schedule: Q03HX064 (oral), vehicle: carboxymethylcellulose (CMC)", "result": "107 % of control [survivor count not shown]"},
      {"measurement": "T/C", "setting": "dose: 50.0 mg/kg/injection, schedule: Q04DX008 (oral), vehicle: carboxymethylcellulose (CMC)", "result": "210 % of control [survivor count not shown]"},
      {"measurement": "T/C", "setting": "dose: 50.0 mg/kg/injection, schedule: Q07DX004 (sc), vehicle: carboxymethylcellulose (CMC)", "result": "136 % of control [survivor count not shown]"},
      {"measurement": "T/C", "setting": "dose: 50.0 mg/kg/injection, schedule: Q14DX002 (sc), vehicle: carboxymethylcellulose (CMC)", "result": "109 % of control [survivor count not shown]"},
      {"measurement": "T/C", "setting": "dose: 50.0 mg/kg/injection, schedule: Q## X008 (oral), vehicle: carboxymethylcellulose (CMC)", "result": "450 % of control [survivor count not shown]"},
      {"measurement": "T/C", "setting": "dose: 50.0 mg/kg/injection, schedule: Q## X010 (ip), vehicle: carboxymethylcellulose (CMC)", "result": "97 % of control [survivor count not shown]"},
      {"measurement": "T/C", "setting": "dose: 50.0 mg/kg/injection, schedule: Q## X010 (oral), vehicle: carboxymethylcellulose (CMC)", "result": "91 [survivor count not shown] and 119 % of control [survivor count not shown]"},
      {"measurement": "T/C", "setting": "dose: 50.0 mg/kg/injection, schedule: Q## X015 (oral), vehicle: carboxymethylcellulose (CMC)", "result": "94 [survivor count not shown] and 109 % of control [survivor count not shown]"},
      {"measurement": "T/C", "setting": "dose: 50.1 mg/kg/injection, schedule: Q07DX004 (sc), vehicle: carboxymethylcellulose (CMC)", "result": "152 % of control [survivor count not shown]"},
      {"measurement": "T/C", "setting": "dose: 65.0 mg/kg/injection, schedule: Q01DX028 (sc), vehicle: carboxymethylcellulose (CMC)", "result": "106 % of control [survivor count not shown]"},
      {"measurement": "T/C", "setting": "dose: 75.0 mg/kg/injection, schedule: Q01DX001 (sc), vehicle: carboxymethylcellulose (CMC)", "result": "127 % of control [survivor count not shown]"},
      {"measurement": "T/C", "setting": "dose: 75.0 mg/kg/injection, schedule: Q01DX005 (oral), vehicle: steroid suspending solution", "result": "115 % of control [survivor count not shown]"},
      {"measurement": "T/C", "setting": "dose: 100.0 mg/kg/injection, schedule: Q01DX001 (ip), vehicle: carboxymethylcellulose (CMC)", "result": "417 % of control [survivor count not shown]"},
      {"measurement": "T/C", "setting": "dose: 100.0 mg/kg/injection, schedule: Q01DX001 (oral), vehicle: carboxymethylcellulose (CMC)", "result": "122 [survivor count not shown], 211 [survivor count not shown], 266 [survivor count not shown], 314 [survivor count not shown], 500 % of control [survivor count not shown]"},
      {"measurement": "T/C", "setting": "dose: 100.0 mg/kg/injection, schedule: Q01DX001 (sc), vehicle: carboxymethylcellulose (CMC)", "result": "186 [survivor count not shown] and 409 % of control [survivor count not shown]"},
      {"measurement": "T/C", "setting": "dose: 100.0 mg/kg/injection, schedule: Q01DX005 (oral), vehicle: carboxymethylcellulose (CMC)", "result": "88 [survivor count not shown] and 102 % of control [survivor count not shown]"},
      {"measurement": "T/C", "setting": "dose: 100.0 mg/kg/injection, schedule: Q01DX028 (oral), vehicle: carboxymethylcellulose (CMC)", "result": "105 % of control [survivor count not shown]"},
      {"measurement": "T/C", "setting": "dose: 100.0 mg/kg/injection, schedule: Q02DX014 (sc), vehicle: carboxymethylcellulose (CMC)", "result": "136 % of control [survivor count not shown]"},
      {"measurement": "T/C", "setting": "dose: 100.0 mg/kg/injection, schedule: Q03HX008 (oral), vehicle: carboxymethylcellulose (CMC)", "result": "500 % of control [survivor count not shown]"},
      {"measurement": "T/C", "setting": "dose: 100.0 mg/kg/injection, schedule: Q04DX008 (oral), vehicle: carboxymethylcellulose (CMC)", "result": "111 [survivor count not shown] and 450 % of control [survivor count not shown]"},
      {"measurement": "T/C", "setting": "dose: 100.0 mg/kg/injection, schedule: Q07DX004 (sc), vehicle: carboxymethylcellulose (CMC)", "result": "204 % of control [survivor count not shown]"},
      {"measurement": "T/C", "setting": "dose: 100.0 mg/kg/injection, schedule: Q08DX004 (oral), vehicle: carboxymethylcellulose (CMC)", "result": "117 % of control [survivor count not shown]"},
      {"measurement": "T/C", "setting": "dose: 100.0 mg/kg/injection, schedule: Q14DX002 (sc), vehicle: carboxymethylcellulose (CMC)", "result": "100 % of control [survivor count not shown]"},
      {"measurement": "T/C", "setting": "dose: 100.0 mg/kg/injection, schedule: Q## X010 (oral), vehicle: carboxymethylcellulose (CMC)", "result": "90 % of control [survivor count not shown]"},
      {"measurement": "T/C", "setting": "dose: 100.0 mg/kg/injection, schedule: Q## X015 (oral), vehicle: carboxymethylcellulose (CMC)", "result": "92 % of control [survivor count not shown]"},
      {"measurement": "T/C", "setting": "dose: 100.1 mg/kg/injection, schedule: Q07DX004 (sc), vehicle: carboxymethylcellulose (CMC)", "result": "110 % of control [survivor count not shown]"},
      {"measurement": "T/C", "setting": "dose: 108.0 mg/kg/injection, schedule: Q01DX028 (sc), vehicle: carboxymethylcellulose (CMC)", "result": "93 % of control [survivor count not shown]"},
      {"measurement": "T/C", "setting": "dose: 150.0 mg/kg/injection, schedule: Q01DX001 (sc), vehicle: carboxymethylcellulose (CMC)", "result": "127 % of control [survivor count not shown]"},
      {"measurement": "T/C", "setting": "dose: 180.0 mg/kg/injection, schedule: Q01DX028 (sc), vehicle: carboxymethylcellulose (CMC)", "result": "88 % of control [survivor count not shown]"},
      {"measurement": "T/C", "setting": "dose: 200.0 mg/kg/injection, schedule: Q01DX001 (oral), vehicle: carboxymethylcellulose (CMC)", "result": "91 [survivor count not shown], 105 [survivor count not shown], 152 % of control [survivor count not shown]"},
      {"measurement": "T/C", "setting": "dose: 200.0 mg/kg/injection, schedule: Q01DX001 (sc), vehicle: carboxymethylcellulose (CMC)", "result": "97 [survivor count not shown] and 327 % of control [survivor count not shown]"},
      {"measurement": "T/C", "setting": "dose: 200.0 mg/kg/injection, schedule: Q01DX005 (oral), vehicle: carboxymethylcellulose (CMC)", "result": "87 % of control [survivor count not shown]"},
      {"measurement": "T/C", "setting": "dose: 200.0 mg/kg/injection, schedule: Q03HX008 (oral), vehicle: carboxymethylcellulose (CMC)", "result": "108 % of control [survivor count not shown]"},
      {"measurement": "T/C", "setting": "dose: 200.0 mg/kg/injection, schedule: Q04DX008 (oral), vehicle: carboxymethylcellulose (CMC)", "result": "111 [survivor count not shown] and 210 % of control [survivor count not shown]"},
      {"measurement": "T/C", "setting": "dose: 200.0 mg/kg/injection, schedule: Q07DX004 (sc), vehicle: carboxymethylcellulose (CMC)", "result": "188 % of control [survivor count not shown]"},
      {"measurement": "T/C", "setting": "dose: 200.0 mg/kg/injection, schedule: Q08DX004 (oral), vehicle: carboxymethylcellulose (CMC)", "result": "94 % of control [survivor count not shown]"},
      {"measurement": "T/C", "setting": "dose: 200.0 mg/kg/injection, schedule: Q14DX002 (sc), vehicle: carboxymethylcellulose (CMC)", "result": "136 % of control [survivor count not shown]"},
      {"measurement": "T/C", "setting": "dose: 400.0 mg/kg/injection, schedule: Q01DX001 (oral), vehicle: carboxymethylcellulose (CMC)", "result": "437 % of control [survivor count not shown]"},
      {"measurement": "T/C", "setting": "dose: 400.0 mg/kg/injection, schedule: Q04DX008 (oral), vehicle: carboxymethylcellulose (CMC)", "result": "305 % of control [survivor count not shown]"},
      {"measurement": "T/C", "setting": "dose: 400.0 mg/kg/injection, schedule: Q07DX004 (sc), vehicle: carboxymethylcellulose (CMC)", "result": "93 % of control [survivor count not shown]"},
      {"measurement": "T/C", "setting": "dose: 400.0 mg/kg/injection, schedule: Q08DX004 (oral), vehicle: carboxymethylcellulose (CMC)", "result": "88 % of control [survivor count not shown]"},
      {"measurement": "T/C", "setting": "dose: 400.0 mg/kg/injection, schedule: Q14DX002 (sc), vehicle: carboxymethylcellulose (CMC)", "result": "177 % of control [survivor count not shown]"},
      {"measurement": "T/C", "setting": "dose: 800.0 mg/kg/injection, schedule: Q01DX001 (oral), vehicle: carboxymethylcellulose (CMC)", "result": "190 % of control [survivor count not shown]"}
    ]}
  ]
}
